Experimental data reported in publication PMC11039996.

Amino acid sequences for entries named in this document (tags omitted).
UniProt Q96DE0: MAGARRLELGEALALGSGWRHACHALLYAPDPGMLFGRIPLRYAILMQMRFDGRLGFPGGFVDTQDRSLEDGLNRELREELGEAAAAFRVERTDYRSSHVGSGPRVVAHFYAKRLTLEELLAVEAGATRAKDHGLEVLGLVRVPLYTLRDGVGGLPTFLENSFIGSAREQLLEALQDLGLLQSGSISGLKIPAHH
UniProt P09874: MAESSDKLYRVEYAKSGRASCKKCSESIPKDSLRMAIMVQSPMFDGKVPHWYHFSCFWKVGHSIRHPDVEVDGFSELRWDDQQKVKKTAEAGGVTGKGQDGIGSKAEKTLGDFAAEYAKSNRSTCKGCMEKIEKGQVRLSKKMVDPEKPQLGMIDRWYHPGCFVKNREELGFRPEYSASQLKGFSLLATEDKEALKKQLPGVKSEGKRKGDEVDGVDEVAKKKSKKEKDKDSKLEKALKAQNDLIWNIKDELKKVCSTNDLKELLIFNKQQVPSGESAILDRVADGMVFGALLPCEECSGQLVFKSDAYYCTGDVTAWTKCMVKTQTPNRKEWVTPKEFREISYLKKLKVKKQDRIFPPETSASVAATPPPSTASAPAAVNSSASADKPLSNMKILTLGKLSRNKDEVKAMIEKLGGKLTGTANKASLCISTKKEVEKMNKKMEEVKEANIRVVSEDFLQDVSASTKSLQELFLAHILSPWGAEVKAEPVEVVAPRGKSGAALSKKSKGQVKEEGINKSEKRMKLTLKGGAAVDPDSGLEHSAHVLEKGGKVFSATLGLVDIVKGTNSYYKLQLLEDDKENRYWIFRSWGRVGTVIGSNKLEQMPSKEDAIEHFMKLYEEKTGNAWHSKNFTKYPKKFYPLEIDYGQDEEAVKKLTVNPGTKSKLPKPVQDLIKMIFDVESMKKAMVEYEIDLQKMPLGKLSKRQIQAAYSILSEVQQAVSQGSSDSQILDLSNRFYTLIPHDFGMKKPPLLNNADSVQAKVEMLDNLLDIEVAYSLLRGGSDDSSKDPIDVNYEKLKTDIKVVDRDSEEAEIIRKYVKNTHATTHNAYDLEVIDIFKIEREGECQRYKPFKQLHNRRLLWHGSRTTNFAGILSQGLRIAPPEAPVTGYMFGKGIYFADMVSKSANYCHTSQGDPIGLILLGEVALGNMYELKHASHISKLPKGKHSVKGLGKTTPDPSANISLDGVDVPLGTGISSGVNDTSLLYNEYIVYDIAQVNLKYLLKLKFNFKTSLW

Target: SFB-tagged NUDT16, wild type (UniProt Q96DE0)
Assay: affinity purification with mass spectrometry; tandem affinity purification (streptavidin beads, biotin elution, S protein beads) of SFB-NUDT16 from cytoplasmic and chromatin fractions of stably expressing 293T cells; NTEN buffer

- binding: binds
Substance: PARP1, endogenous (from UniProt P09874 1-1014)

Results are given in words; binding and its absence hold for the method and conditions named. Binding seen in cells or lysates may run through a third protein. A yes stands for co-enrichment or nearness to the bait. Other partners may have been found.
